Consider four molecules from doi:10.1101/2023.05.30.542914 (bioRxiv, 2023).

In assay [1] the target is T1, myc-tagged Wnt7a-BirA (UniProt O00755).
T1 sequence: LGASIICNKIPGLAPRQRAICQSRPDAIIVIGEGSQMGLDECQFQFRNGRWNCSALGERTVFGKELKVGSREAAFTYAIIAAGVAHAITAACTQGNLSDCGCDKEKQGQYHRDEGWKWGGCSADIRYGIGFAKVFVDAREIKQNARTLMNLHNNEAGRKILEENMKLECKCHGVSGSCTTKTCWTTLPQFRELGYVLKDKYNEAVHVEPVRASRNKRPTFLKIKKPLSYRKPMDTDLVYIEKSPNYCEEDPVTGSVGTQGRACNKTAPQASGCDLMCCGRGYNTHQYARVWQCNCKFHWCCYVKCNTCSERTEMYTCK
The experiment in a line: proximity ligation.

The target in assay [2] is T2, Wnt7a-HA, full length (Wnt7a-FL) (human) (UniProt O00755).
T2 sequence: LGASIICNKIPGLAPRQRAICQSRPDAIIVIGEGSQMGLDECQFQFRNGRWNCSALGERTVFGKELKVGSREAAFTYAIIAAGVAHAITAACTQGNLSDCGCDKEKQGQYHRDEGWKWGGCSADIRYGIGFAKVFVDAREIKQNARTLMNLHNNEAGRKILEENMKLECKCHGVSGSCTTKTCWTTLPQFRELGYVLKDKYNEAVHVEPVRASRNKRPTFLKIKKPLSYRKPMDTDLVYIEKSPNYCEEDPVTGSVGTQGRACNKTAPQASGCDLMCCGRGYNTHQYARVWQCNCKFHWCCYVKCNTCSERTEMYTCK
Kind of assay: co-IP.

Assay [3] concerns the target T3, COPB2 (human (endogenous in HEK293T)) (UniProt P35606).
T3 sequence: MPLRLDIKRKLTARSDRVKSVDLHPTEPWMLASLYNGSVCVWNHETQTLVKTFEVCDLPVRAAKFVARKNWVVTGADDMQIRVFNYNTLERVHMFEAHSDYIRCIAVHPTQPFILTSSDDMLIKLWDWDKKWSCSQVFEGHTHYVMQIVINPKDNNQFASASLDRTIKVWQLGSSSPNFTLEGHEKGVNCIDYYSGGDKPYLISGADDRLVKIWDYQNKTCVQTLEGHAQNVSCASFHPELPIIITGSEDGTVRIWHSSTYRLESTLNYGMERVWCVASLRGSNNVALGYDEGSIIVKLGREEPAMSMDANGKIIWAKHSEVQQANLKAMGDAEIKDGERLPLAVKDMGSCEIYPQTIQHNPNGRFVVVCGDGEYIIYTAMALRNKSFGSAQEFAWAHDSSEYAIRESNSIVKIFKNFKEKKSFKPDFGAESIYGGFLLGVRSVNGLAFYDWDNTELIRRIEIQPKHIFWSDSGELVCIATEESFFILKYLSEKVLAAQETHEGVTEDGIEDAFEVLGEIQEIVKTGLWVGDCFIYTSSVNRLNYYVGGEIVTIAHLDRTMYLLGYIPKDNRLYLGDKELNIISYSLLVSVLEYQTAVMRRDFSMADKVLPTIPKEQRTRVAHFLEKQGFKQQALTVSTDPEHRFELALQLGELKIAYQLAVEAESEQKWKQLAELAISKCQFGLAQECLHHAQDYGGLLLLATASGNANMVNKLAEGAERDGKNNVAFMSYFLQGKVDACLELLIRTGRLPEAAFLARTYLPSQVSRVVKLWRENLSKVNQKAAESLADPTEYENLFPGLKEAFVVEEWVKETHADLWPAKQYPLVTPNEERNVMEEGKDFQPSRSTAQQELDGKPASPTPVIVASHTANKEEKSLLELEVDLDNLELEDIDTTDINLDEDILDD
Kind of assay: co-IP.

No constants are given. Whether binding was seen depends on the method and setting. Binding seen in cells or lysates may run through a third protein. Some results given as binding are weak or reduced against the parent protein; the word gives no strength. Sequences can lack the tags named with a protein.

B1: COPA (mouse) (protein, UniProt Q8CIE6)
chain: MLTKFETKSARVKGLSFHPKRPWILTSLHNGVIQLWDYRMCTLIDKFDEHDGPVRGIDFHKQQPLFVSGGDDYKIKVWNYKLRRCLFTLLGHLDYIRTTFFHHEYPWILSASDDQTIRVWNWQSRTCVCVLTGHNHYVMCAQFHPSEDLVVSASLDQTVRVWDISGLRKKNLSPGAVESDVRGITGVDLFGTTDAVVKHVLEGHDRGVNWAAFHPTMPLIVSGADDRQVKIWRMNESKAWEVDTCRGHYNNVSCAVFHPRQELILSNSEDKSIRVWDMSKRTGVQTFRRDHDRFWVLAAHPNLNLFAAGHDGGMIVFKLERERPAYAVHGNMLHYVKDRFLRQLDFNSSKDVAVMQLRSGSKFPVFNMSYNPAENAVLLCTRASNLENSTYDLYTIPKDADSQNPDAPEGKRSSGLTAVWVARNRFAVLDRMHSLLIKNLKNEITKKIQVPNCDEIFYAGTGNLLLRDADSITLFDVQQKRTLASVKISKVKYVIWSADMSHVALLAKHAIVICNRKLDALCNIHENIRVKSGAWDESGVFIYTTSNHIKYAVTTGDHGIIRTLDLPIYVTRVKGNNVYCLDRECRPRVLTIDPTEFKFKLALINRKYDEVLHMVRNAKLVGQSIIAYLQKKGYPEVALHFVKDEKTRFSLALECGNIEIALEAAKALDDKNCWEKLGEVALLQGNHQIVEMCYQRTKNFDKLSFLYLITGNLEKLRKMMKIAEIRKDMSGHYQNALYLGDVSERVRILKNCGQKSLAYLSAATHGLDEEAESLKETFDPEKETIPDIDPNAKLLQPPAPIMPLDTNWPLLTVSKGFFEGSIASKGKGGALAADIDIDTVGTEGWGEDAELQLDEDGFVEAPEGLGEDVLGKGQEEGGGWDVEEDLELPPELDVPSGVSGSAEDGFFVPPTKGTSPTQIWCNNSQLPVDHILAGSFETAMRLLHDQVGVIQFGPYKQLFLQTYARGRTTYQALPCLPSMYSYPNRNWKDAGLKNGVPAVGLKLNDLIQRLQLCYQLTTVGKFEEAVEKFRSILLSVPLLVVDNKQEIAEAQQLITICREYIVGLCMEIERKKLPKETLDQQKRICEMAAYFTHSNLQPVHMILVLRTALNLFFKLKNFKTAATFARRLLELGPKPEVAQQTRKILSACEKNPTDACQLNYDMHNPFDICAASYRPIYRGKPVEKCPLSGACYSPEFKGQICRVTTVTEIGKDVIGLRISPLQFR
For B1, in assay [1], the binding result is “binds”.

B2: COPB2 (protein, UniProt P35606 1-906)
chain: MPLRLDIKRKLTARSDRVKSVDLHPTEPWMLASLYNGSVCVWNHETQTLVKTFEVCDLPVRAAKFVARKNWVVTGADDMQIRVFNYNTLERVHMFEAHSDYIRCIAVHPTQPFILTSSDDMLIKLWDWDKKWSCSQVFEGHTHYVMQIVINPKDNNQFASASLDRTIKVWQLGSSSPNFTLEGHEKGVNCIDYYSGGDKPYLISGADDRLVKIWDYQNKTCVQTLEGHAQNVSCASFHPELPIIITGSEDGTVRIWHSSTYRLESTLNYGMERVWCVASLRGSNNVALGYDEGSIIVKLGREEPAMSMDANGKIIWAKHSEVQQANLKAMGDAEIKDGERLPLAVKDMGSCEIYPQTIQHNPNGRFVVVCGDGEYIIYTAMALRNKSFGSAQEFAWAHDSSEYAIRESNSIVKIFKNFKEKKSFKPDFGAESIYGGFLLGVRSVNGLAFYDWDNTELIRRIEIQPKHIFWSDSGELVCIATEESFFILKYLSEKVLAAQETHEGVTEDGIEDAFEVLGEIQEIVKTGLWVGDCFIYTSSVNRLNYYVGGEIVTIAHLDRTMYLLGYIPKDNRLYLGDKELNIISYSLLVSVLEYQTAVMRRDFSMADKVLPTIPKEQRTRVAHFLEKQGFKQQALTVSTDPEHRFELALQLGELKIAYQLAVEAESEQKWKQLAELAISKCQFGLAQECLHHAQDYGGLLLLATASGNANMVNKLAEGAERDGKNNVAFMSYFLQGKVDACLELLIRTGRLPEAAFLARTYLPSQVSRVVKLWRENLSKVNQKAAESLADPTEYENLFPGLKEAFVVEEWVKETHADLWPAKQYPLVTPNEERNVMEEGKDFQPSRSTAQQELDGKPASPTPVIVASHTANKEEKSLLELEVDLDNLELEDIDTTDINLDEDILDD
As for B2, in assay [2], the binding entry is on record as “binds”.

B3: COPB2 (mouse) (protein, UniProt O55029 1-905)
chain: MPLRLDIKRKLTARSDRVKSVDLHPTEPWMLASLYNGSVCVWNHETQTLVKTFEVCDLPVRAAKFVARKNWVVTGADDMQIRVFNYNTLERVHMFEAHSDYIRCIAVHPTQPFILTSSDDMLIKLWDWDKKWSCSQVFEGHTHYVMQIVINPKDNNQFASASLDRTIKVWQLGSSSPNFTLEGHEKGVNCIDYYSGGDKPYLISGADDRLVKIWDYQNKTCVQTLEGHAQNVSCASFHPELPIIITGSEDGTVRIWHSSTYRLESTLNYGMERVWCVASLRGSNNVALGYDEGSIIVKLGREEPAMSMDANGKIIWAKHSEVQQANLKAMGDTEIKDGERLPLAVKDMGSCEIYPQTIQHNPNGRFVVVCGDGEYIIYTAMALRNKSFGSAQEFAWAHDSSEYAIRESNSIVKIFKNFKEKKSFKPDFGAESIYGGFLLGVRSVNGLAFYDWENTELIRRIEIQPKHIFWSDSGELVCIATEESFFILKYLSEKVLAAQETHEGVTEDGIEDAFEVLGEIQEIVKTGLWVGDCFIYTSSVNRLNYYVGGEIVTIAHLDRTMYLLGYIPKDNRLYLGDKELNIVSYSLLVSVLEYQTAVMRRDFSMADKVLPTIPKEQRTRVAHFLEKQGFKQQALTVSTDPEHRFELALQLGELKIAYQLAVEAESEQKWKQLAELAISKCQFSLAQECLHHAQDYGGLLLLATASGNASMVNKLAEGAERDGKNNVAFMSYFLQGKLDACLELLIRTGRLPEAAFLARTYLPSQVSRVVKLWRENLSKVNQKAAESLADPTEYENLFPGLKEAFVVEEWVKETHADLWPAKQYPLVTPNEERNVMEEAKGFQPSRPTAQQEPDGKPASSPVIMASQTTHKEEKSLLELEVDLDNLELEDIDTTDINLDEDILDD
Regarding B3, in assay [1], the binding result was “binds”.

B4: Wnt7a-HA, full length (Wnt7a-FL) (protein, UniProt O00755 32-349)
chain: LGASIICNKIPGLAPRQRAICQSRPDAIIVIGEGSQMGLDECQFQFRNGRWNCSALGERTVFGKELKVGSREAAFTYAIIAAGVAHAITAACTQGNLSDCGCDKEKQGQYHRDEGWKWGGCSADIRYGIGFAKVFVDAREIKQNARTLMNLHNNEAGRKILEENMKLECKCHGVSGSCTTKTCWTTLPQFRELGYVLKDKYNEAVHVEPVRASRNKRPTFLKIKKPLSYRKPMDTDLVYIEKSPNYCEEDPVTGSVGTQGRACNKTAPQASGCDLMCCGRGYNTHQYARVWQCNCKFHWCCYVKCNTCSERTEMYTCK
For B4, the binding entry in assay [3] is given as “binds”.
